In doi:10.1101/2020.06.17.158212:
No constants are given. Whether binding was seen depends on the method and setting. A result given as binding can be weak or reduced; the word gives no strength. Sequences can lack the tags named with a protein. For some assays here: Binding seen in cells or lysates may run through a third protein.

T1: WRKY20 (BiFC fusion used with MPK3 or MPK6) (Arabidopsis thaliana) (UniProt Q93WV0)
T1 sequence: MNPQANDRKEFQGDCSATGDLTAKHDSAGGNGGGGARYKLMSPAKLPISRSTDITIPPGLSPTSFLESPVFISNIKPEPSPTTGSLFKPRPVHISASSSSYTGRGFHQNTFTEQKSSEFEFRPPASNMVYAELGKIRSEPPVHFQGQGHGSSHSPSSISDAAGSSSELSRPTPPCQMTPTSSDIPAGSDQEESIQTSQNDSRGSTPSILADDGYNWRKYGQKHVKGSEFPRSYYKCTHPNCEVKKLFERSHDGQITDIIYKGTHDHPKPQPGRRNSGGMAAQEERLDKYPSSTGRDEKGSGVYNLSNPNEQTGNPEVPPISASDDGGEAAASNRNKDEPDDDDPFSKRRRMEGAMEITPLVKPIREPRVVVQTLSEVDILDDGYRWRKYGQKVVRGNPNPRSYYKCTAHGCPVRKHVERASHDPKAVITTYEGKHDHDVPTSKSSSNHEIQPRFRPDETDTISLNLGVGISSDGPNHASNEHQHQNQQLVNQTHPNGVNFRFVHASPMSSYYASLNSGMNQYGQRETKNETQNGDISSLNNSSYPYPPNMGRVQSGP

T2: YFP-MPK3 (Arabidopsis thaliana) (UniProt Q39023)
T2 sequence: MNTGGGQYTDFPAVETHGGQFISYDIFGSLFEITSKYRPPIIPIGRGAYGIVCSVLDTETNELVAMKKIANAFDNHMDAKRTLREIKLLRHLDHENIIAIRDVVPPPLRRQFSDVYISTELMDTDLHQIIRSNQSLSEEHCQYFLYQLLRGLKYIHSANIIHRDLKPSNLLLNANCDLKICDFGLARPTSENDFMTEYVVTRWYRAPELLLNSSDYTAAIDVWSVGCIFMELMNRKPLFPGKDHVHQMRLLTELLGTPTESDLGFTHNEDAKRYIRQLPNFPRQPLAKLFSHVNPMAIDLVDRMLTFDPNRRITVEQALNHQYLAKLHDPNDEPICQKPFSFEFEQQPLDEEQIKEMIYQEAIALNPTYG


Legend:
[1] = target: T1, WRKY20 (BiFC fusion used with MPK3 or MPK6) (Arabidopsis thaliana); assay: split reporter
[2] = target: T2, YFP-MPK3 (Arabidopsis thaliana); assay: co-IP
[3] = target: BD-βC1 (tomato yellow leaf curl China betasatellite (TYLCCNB)); assay: two-hybrid
[4] = target: βC1 fused with the C-terminal part of EYFP (tomato yellow leaf curl China betasatellite (TYLCCNB)); assay: split reporter
[5] = target: βC1^S33D fused with the C-terminal part of EYFP (tomato yellow leaf curl China betasatellite (TYLCCNB)); assay: split reporter
[6] = target: His-βC1 fusion protein (tomato yellow leaf curl China betasatellite (TYLCCNB)); assay: pull-down

Row | Molecule | binding [4] | binding [5] | also measured
1 | βC1 (coexpressed in the modified BiFC assay) |  |  | binding [1]: binds
2 | βC1-myc |  |  | binding [2]: binds
3 | AD-MPK3 (enzyme, UniProt Q39023 1-370) MNTGGGQYTDFPAVETHGGQFISYDIFGSLFEITSKYRPPIIPIGRGAYGIVCSVLDTETNELVAMKKIANAFDNHMDAKRTLREIKLLRHLDHENIIAIRDVVPPPLRRQFSDVYISTELMDTDLHQIIRSNQSLSEEHCQYFLYQLLRGLKYIHSANIIHRDLKPSNLLLNANCDLKICDFGLARPTSENDFMTEYVVTRWYRAPELLLNSSDYTAAIDVWSVGCIFMELMNRKPLFPGKDHVHQMRLLTELLGTPTESDLGFTHNEDAKRYIRQLPNFPRQPLAKLFSHVNPMAIDLVDRMLTFDPNRRITVEQALNHQYLAKLHDPNDEPICQKPFSFEFEQQPLDEEQIKEMIYQEAIALNPTYG |  |  | binding [3]: binds
4 | WRKY20 fused with the N-terminal part of EYFP (protein, UniProt Q93WV0 1-557) MNPQANDRKEFQGDCSATGDLTAKHDSAGGNGGGGARYKLMSPAKLPISRSTDITIPPGLSPTSFLESPVFISNIKPEPSPTTGSLFKPRPVHISASSSSYTGRGFHQNTFTEQKSSEFEFRPPASNMVYAELGKIRSEPPVHFQGQGHGSSHSPSSISDAAGSSSELSRPTPPCQMTPTSSDIPAGSDQEESIQTSQNDSRGSTPSILADDGYNWRKYGQKHVKGSEFPRSYYKCTHPNCEVKKLFERSHDGQITDIIYKGTHDHPKPQPGRRNSGGMAAQEERLDKYPSSTGRDEKGSGVYNLSNPNEQTGNPEVPPISASDDGGEAAASNRNKDEPDDDDPFSKRRRMEGAMEITPLVKPIREPRVVVQTLSEVDILDDGYRWRKYGQKVVRGNPNPRSYYKCTAHGCPVRKHVERASHDPKAVITTYEGKHDHDVPTSKSSSNHEIQPRFRPDETDTISLNLGVGISSDGPNHASNEHQHQNQQLVNQTHPNGVNFRFVHASPMSSYYASLNSGMNQYGQRETKNETQNGDISSLNNSSYPYPPNMGRVQSGP | binds | binds | 
5 | GST-MPK3 fusion protein (enzyme, UniProt Q39023 1-370) MNTGGGQYTDFPAVETHGGQFISYDIFGSLFEITSKYRPPIIPIGRGAYGIVCSVLDTETNELVAMKKIANAFDNHMDAKRTLREIKLLRHLDHENIIAIRDVVPPPLRRQFSDVYISTELMDTDLHQIIRSNQSLSEEHCQYFLYQLLRGLKYIHSANIIHRDLKPSNLLLNANCDLKICDFGLARPTSENDFMTEYVVTRWYRAPELLLNSSDYTAAIDVWSVGCIFMELMNRKPLFPGKDHVHQMRLLTELLGTPTESDLGFTHNEDAKRYIRQLPNFPRQPLAKLFSHVNPMAIDLVDRMLTFDPNRRITVEQALNHQYLAKLHDPNDEPICQKPFSFEFEQQPLDEEQIKEMIYQEAIALNPTYG |  |  | binding [6]: binds
6 | MPK3 fused with the N-terminal part of EYFP (enzyme, UniProt Q39023 1-370) MNTGGGQYTDFPAVETHGGQFISYDIFGSLFEITSKYRPPIIPIGRGAYGIVCSVLDTETNELVAMKKIANAFDNHMDAKRTLREIKLLRHLDHENIIAIRDVVPPPLRRQFSDVYISTELMDTDLHQIIRSNQSLSEEHCQYFLYQLLRGLKYIHSANIIHRDLKPSNLLLNANCDLKICDFGLARPTSENDFMTEYVVTRWYRAPELLLNSSDYTAAIDVWSVGCIFMELMNRKPLFPGKDHVHQMRLLTELLGTPTESDLGFTHNEDAKRYIRQLPNFPRQPLAKLFSHVNPMAIDLVDRMLTFDPNRRITVEQALNHQYLAKLHDPNDEPICQKPFSFEFEQQPLDEEQIKEMIYQEAIALNPTYG | binds | binds | 
